Data as given in PubChem BioAssay AID1224830 (NIAID, 2016).

- Test: 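Genes whose knock-down alters the TNF-alpha reporter response to LPS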 (primary screen)
- Cell system: human THP-1 monocytic leukaemia cells, TNF dual-luciferase reporter clone, PMA-differentiated to macrophage-like cells
- Reagents: siRNA pool against human genes, 50 nM
- Duration: LPS for 4 h, given about 3 days after siRNA transfection
- Challenge: bacterial LPS (TLR4 ligand), 10 ng/ml
- Measured: 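TNF firefly reporter luminescence divided by renilla, normalised to the plate median, then turned into a robust z-score for each replicate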
- Scale: TNF reporter robust z-score: higher = stronger TNF reporter response to LPS
- Hit rule: 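a well is active when its z-score exceeds 2.8 or falls below -1.5; control wells carry no call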
Shown is an unselected part of about 18,000 deposited reagents. About 2,900 of them (16%) were called active. 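Calls are made per well; low scores hint the gene aids the LPS response, high scores that it dampens it.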 Repeated entries: four replicate wells of each siRNA pool. No sequences are given here.

gene,TNF reporter robust z-score,Call
ROR2,-1.62,active
ROR2,-0.62,inactive
ROR2,0.66,inactive
ROR2,-0.05,inactive
CCDC71L,-0.19,inactive
CCDC71L,-1.14,inactive
CCDC71L,-0.96,inactive
CCDC71L,0.94,inactive
AKR1C4,1.52,inactive
AKR1C4,1.85,inactive
AKR1C4,0.35,inactive
AKR1C4,-0.71,inactive
TCP11,2.4,inactive
TCP11,0.88,inactive
TCP11,1.03,inactive
TCP11,1.41,inactive
RIPPLY3,-0.26,inactive
RIPPLY3,0.46,inactive
RIPPLY3,-0.19,inactive
RIPPLY3,0.9,inactive
BMAL2,-0.25,inactive
BMAL2,-0.51,inactive
BMAL2,0,inactive
BMAL2,0.76,inactive
PIWIL2,1.14,inactive
PIWIL2,0.08,inactive
PIWIL2,-0.58,inactive
PIWIL2,0.52,inactive
OCLM (retired record),-1.34,inactive
OCLM (retired record),-0.33,inactive
OCLM (retired record),-0.89,inactive
OCLM (retired record),0.87,inactive
SLC25A37,-0.77,inactive
SLC25A37,-0.3,inactive
SLC25A37,-0.73,inactive
SLC25A37,0.08,inactive
TTL,-0.53,inactive
TTL,-0.7,inactive
TTL,-0.9,inactive
DNAJB14,-0.74,inactive
DNAJB14,0.47,inactive
DNAJB14,-1.18,inactive
DNAJB14,0.93,inactive
SLC16A4,-0.68,inactive
SLC16A4,-0.99,inactive
SLC16A4,-1.61,active
SLC16A4,-1.1,inactive
ARSF,-0.79,inactive
ARSF,0.07,inactive
ARSF,-0.39,inactive
ARSF,-0.02,inactive
KLHDC8A,-1.17,inactive
KLHDC8A,-1.23,inactive
KLHDC8A,-1.12,inactive
KLHDC8A,-1.2,inactive
DYNLRB2,-1.01,inactive
DYNLRB2,0.16,inactive
DYNLRB2,-0.68,inactive
DYNLRB2,0.89,inactive
KRTAP5-11,0.68,inactive
KRTAP5-11,0.27,inactive
KRTAP5-11,0.54,inactive
KRTAP5-11,1.07,inactive
ATP5MF,-0.23,inactive
ATP5MF,0.48,inactive
ATP5MF,-0.49,inactive
AMELX,-0.33,inactive
AMELX,0,inactive
AMELX,0.12,inactive
AMELX,1.37,inactive
SLIRP,-0.23,inactive
SLIRP,-0.17,inactive
SLIRP,-0.32,inactive
SLIRP,-0.22,inactive
NAT9,-0.73,inactive
NAT9,-0.5,inactive
NAT9,-0.71,inactive
NAT9,0.17,inactive

Reagents listed so far marked active:
gene,TNF reporter robust z-score,Call
ROR2,-1.62,active
SLC16A4,-1.61,active
